# Values from PubChem BioAssay AID1224826 (NIAID, 2016)
# Purpose: 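Knock-downs that raise or lower Tnf reporter signal after endotoxin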 (primary screen)
# Cells: RAW264.7 G9 macrophages from mouse bearing reporters for p65 (GFP) and the Tnf promoter (mCherry)
# Knock-down reagent: siRNA pool against mouse genes, 100 nM
# Timing: 16 h of LPS stimulation, after 2 days of siRNA transfection
# Conditions: bacterial lipopolysaccharide (Salmonella minnesota R595), 10 ng/ml
# Measurement: 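Nuclear mCherry signal of the Tnf promoter reporter measured by imaging after background removal, scaled to each plate median and turned into robust z-scores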
# Reading the numbers: Tnf reporter robust z-score: higher = stronger Tnf promoter reporter signal after LPS; Tnf reporter intensity: higher = stronger Tnf promoter reporter signal
# Active means: 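Called active when robust z-score is at most -1.3, matching the median of the Tlr4 knock-down control, or over 3; control wells and wells with under 50 cells never active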
# Calls: active = Tnf reporter clearly lowered or raised; inactive = no clear change in Tnf reporter
# Shown is one part, drawn at random, of about 17,000 reagents. About 1,110 of them (6.6%) count as active. 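Active means lowered or raised reporter signal; replicate intensities are raw and not normalised per plate.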 The numbers tell different reagents against one gene apart. Further read-outs or replicates are left out here.
gene symbol,reagent no.,Tnf reporter robust z-score,fewer than 50 cells in well,"Tnf reporter intensity, replicate 1",outcome
Cilk1,1,0.94,enough cells in well,280,inactive
Ica1,1,0.33,enough cells in well,234,inactive
Ece1,1,-0.19,enough cells in well,190,inactive
Agpat5,1,0.1,enough cells in well,207,inactive
Klra6,1,-0.46,enough cells in well,223,inactive
Tmigd1,1,2.55,enough cells in well,282,inactive
Noc2l,1,-1.13,enough cells in well,142,inactive
Gna12,1,1.34,enough cells in well,344,inactive
Dlgap4,1,3.36,enough cells in well,316,active
Aqp11,1,-0.62,enough cells in well,147,inactive
Gm20735,1,1.13,enough cells in well,267,inactive
Oaz1,1,-0.13,enough cells in well,258,inactive
E130016E03RIK,1,-0.93,enough cells in well,130,inactive
BC016548,1,-0.55,enough cells in well,169,inactive
Kcnj10,1,0.82,enough cells in well,276,inactive
Umodl1,1,1.56,enough cells in well,371,inactive

Continued (3 carried over from the part before).
gene symbol,reagent no.,Tnf reporter robust z-score,fewer than 50 cells in well,"Tnf reporter intensity, replicate 1",outcome
BC016548,1,-0.55,enough cells in well,169,inactive
Kcnj10,1,0.82,enough cells in well,276,inactive
Umodl1,1,1.56,enough cells in well,371,inactive
Rraga,1,-0.18,enough cells in well,356,inactive
Rxylt1,1,-0.19,enough cells in well,231,inactive
Necap1,1,1.11,enough cells in well,288,inactive
Wbp1l,1,-0.81,enough cells in well,172,inactive
Srsf6,1,0.85,enough cells in well,92.6,inactive
Arl4d,1,-0.32,enough cells in well,189,inactive
Arl4d,2,-0.35,enough cells in well,161,inactive
Ankrd55,1,1.75,enough cells in well,175,inactive
